These results are taken from PubChem BioAssay AID192 (DTP/NCI, 2004).

Structures are written as SMILES. The list shows only some results of the screen, not a fair sample: it is rich in T/C values a quarter to a half above the control, in often repeated tests (any T/C) and in doses without a T/C. Other doses and runs of a compound stand elsewhere. T/C gives the treated animals as a percentage of the vehicle group. Some entries give survivors of the animals treated and no T/C: the source files T/C as zero there, which appears to mark a toxic dose or a test without result, not a measured value. Some doses without a T/C left all or most animals alive at the check, yet need not have been tolerated: survival well below the control is almost never listed, so the zero probably covers shortened survival too. Survivors were counted at the toxicity check, usually on the fifth day, unless a day is given; later deaths do not show. Schedule codes are those of the source, taken here to give the interval after Q, in days (D) or hours (H), and the number of doses after X. Some doses were run more than once; the values are given in rising order. For survival time, this PubChem deposit counts one and a half times the control or more as active, and values a quarter to a half above the control carry no call in these data; other NCI protocols may use other cut-offs. Some T/C values carry the count of animals alive at the toxicity check (mostly the fifth day); without a count, all were alive then.

The assay relates to BDF1 mice, B16 melanoma ip, median survival T/C. As to the kind of experiment: NCI In Vivo Anticancer Drug Screen. Data for tumor model B16 Melanoma (intraperitoneal) in B6D2F1 (BDF1) mice. To be noted: T/C endpoint: median survival time, higher T/C = longer survival. The method, boiled down: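 Compounds were tested in mice carrying transplantable tumors. Survival or tumor size was recorded, and each value is the treated-group measurement (T) divided by that of the vehicle-treated control group (C).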

[1] abbreviates: dose: 2.0 mg/kg/injection, schedule: Q01DX009 (ip), vehicle: saline.
Where [2] appears, read: dose: 4.0 mg/kg/injection, schedule: Q01DX009 (ip), vehicle: saline.
[3] abbreviates: dose: 8.0 mg/kg/injection, schedule: Q01DX009 (ip), vehicle: saline.
Where [4] appears, read: dose: 100.0 mg/kg/injection, schedule: Q04DX003 (ip), vehicle: Klucel (hydroxypropylcellulose) (HPC).
The mark [5] stands for this setting: dose: 400.0 mg/kg/injection, schedule: Q01DX009 (ip), vehicle: saline with Tween-80.
[6] abbreviates: dose: 200.0 mg/kg/injection, schedule: Q01DX009 (ip), vehicle: saline.
Where [7] appears, read: dose: 50.0 mg/kg/injection, schedule: Q01DX009 (ip), vehicle: saline with Tween-80.
[8] abbreviates: dose: 25.0 mg/kg/injection, schedule: Q01DX009 (ip), vehicle: saline with Tween-80.
[9] abbreviates: dose: 100.0 mg/kg/injection, schedule: Q01DX009 (ip), vehicle: saline with Tween-80.
The mark [10] stands for this setting: dose: 200.0 mg/kg/injection, schedule: Q01DX009 (ip), vehicle: saline with Tween-80.
Setting [11] is: dose: 200.0 mg/kg/injection, schedule: Q04DX003 (ip), vehicle: Klucel (hydroxypropylcellulose) (HPC).
Setting [12] is: dose: 400.0 mg/kg/injection, schedule: Q04DX003 (ip), vehicle: Klucel (hydroxypropylcellulose) (HPC).

Take `OC(C1CO1)C(O)C1CO1` (stereo not drawn): the T/C reads like this: (dose: 0.25 mg/kg/injection, schedule: Q03HX024 (ip), vehicle: saline) 131 % of control; (dose: 0.5 mg/kg/injection, schedule: Q01DX009 (ip), vehicle: saline) 107, 109, 111 [9 of 10 alive], 118 % of control; (dose: 0.5 mg/kg/injection, schedule: Q03HX016 (ip), vehicle: saline) 142 % of control; (dose: 0.5 mg/kg/injection, schedule: Q03HX024 (ip), vehicle: saline) 141 % of control; (dose: 1.0 mg/kg/injection, schedule: Q01DX009 (ip), vehicle: saline) 118, 120, 123, 130 % of control; (dose: 1.0 mg/kg/injection, schedule: Q03HX008 (ip), vehicle: saline) 141 % of control. Also, the T/C is 130 % of control (dose: 1.0 mg/kg/injection, schedule: Q04DX003 (ip), vehicle: saline); 129 % of control (dose: 2.0 mg/kg/injection, schedule: Q01DX001 (ip), vehicle: saline); 136 % of control (dose: 2.0 mg/kg/injection, schedule: Q01DX009 (ip), vehicle: saline sonified); 145, 147, 156, 160 % of control under setting [1]; 141 % of control (dose: 2.0 mg/kg/injection, schedule: Q08DX002 (ip), vehicle: saline); 105 and 214 % of control under setting [2]. Besides, the survivor count is 10 of 10 (dose: 2.0 mg/kg/injection, schedule: Q03HX024 (ip), vehicle: saline); 8 of 10 and 10 of 10 under setting [2]; 8 of 10 (dose: 4.0 mg/kg/injection, schedule: Q03HX008 (ip), vehicle: saline); 10 of 10 (dose: 4.0 mg/kg/injection, schedule: Q03HX016 (ip), vehicle: saline); 8 of 10 (dose: 4.0 mg/kg/injection, schedule: Q03HX024 (ip), vehicle: saline); 10 of 10 (dose: 8.0 mg/kg/injection, schedule: Q01DX005 (ip), vehicle: saline). In addition, the survivor count runs as follows: (dose: 8.0 mg/kg/injection, schedule: Q01DX009 (ip), vehicle: saline sonified) 6 of 6; under setting [3], 9 of 10 and 10 of 10; (dose: 8.0 mg/kg/injection, schedule: Q03HX008 (ip), vehicle: saline) 9 of 10; (dose: 8.0 mg/kg/injection, schedule: Q03HX016 (ip), vehicle: saline) 10 of 10; (dose: 8.0 mg/kg/injection, schedule: Q04DX003 (ip), vehicle: saline) 10 of 10; (dose: 16.0 mg/kg/injection, schedule: Q01DX001 (ip), vehicle: saline) 7 of 10. Also, the survivor count runs as follows: (dose: 16.0 mg/kg/injection, schedule: Q01DX005 (ip), vehicle: saline) 9 of 10; (dose: 16.0 mg/kg/injection, schedule: Q01DX009 (ip), vehicle: saline sonified) 6 of 6; (dose: 16.0 mg/kg/injection, schedule: Q01DX009 (ip), vehicle: saline) 6 of 10; (dose: 16.0 mg/kg/injection, schedule: Q04DX003 (ip), vehicle: saline) 6 of 10 and 6 of 6; (dose: 16.0 mg/kg/injection, schedule: Q08DX002 (ip), vehicle: saline) 10 of 10; (dose: 32.0 mg/kg/injection, schedule: Q01DX001 (ip), vehicle: saline) 5 of 10. The survivor count was 2 of 6 and 6 of 10 (dose: 32.0 mg/kg/injection, schedule: Q04DX003 (ip), vehicle: saline); 8 of 10 (dose: 32.0 mg/kg/injection, schedule: Q08DX002 (ip), vehicle: saline); 10 of 10 (dose: 64.0 mg/kg/injection, schedule: Q01DX001 (ip), vehicle: saline); 10 of 10 (dose: 64.0 mg/kg/injection, schedule: Q08DX002 (ip), vehicle: saline).

Take `BrCCC[P+](c1ccccc1)(c1ccccc1)c1ccccc1`: the survivor count is, setting by setting: (dose: 50.0 mg/kg/injection, schedule: Q01DX009 (ip), vehicle: Klucel (hydroxypropylcellulose) (HPC)) 4 of 10; (dose: 50.0 mg/kg/injection, schedule: Q04DX003 (ip), vehicle: Klucel (hydroxypropylcellulose) (HPC)) 10 of 10; under setting [4], 8 of 10.

In the case of `O=C(O)c1[nH]c(=O)[nH]c(=O)c1N1CCCCC1`, under setting [4], the survivor count was 2 of 10.

In the case of `CC/C(C)=C(/C(=O)O)c1ccccc1`, the survivor count under setting [5] was 10 of 10.

Take `C(CSC1=NCCN1)CSC1=NCCN1`: the survivor count under setting [6] is on record as 3 of 10.

On to `CCCC[P+](CCCC)(CCCC)C(C)C`, for which the survivor count under setting [7] is given as 4 of 10.

`Nc1ncnc2c1ccn2C1OC2COP(=O)(O)OC2C1O` (stereo not drawn): the T/C under setting [1] was 138 % of control [5 of 6 alive]. Besides, under setting [3], the survivor count is 4 of 6.

Regarding `Clc1ccc2c(c1)/C(=C/c1ccccc1Cl)c1cc(Cl)cc(Cl)c1-2`, the survivor count runs as follows: under setting [8], 6 of 6; under setting [7], 6 of 6; under setting [9], 6 of 6; under setting [10], 6 of 6; under setting [5], 6 of 6; (dose: 800.0 mg/kg/injection, schedule: Q01DX009 (ip), vehicle: saline with Tween-80) 6 of 6.

As to `Cc1ccc(N(CCCl)CCCl)cc1NC(=O)c1ccccc1`, the T/C is, setting by setting: (dose: 100.0 mg/kg/injection, schedule: Q01DX009 (ip), vehicle: saline) 145 % of control; under setting [6], 145 % of control.

`Cc1ccc(S(=O)(=O)N(Cc2cccc(CN(S(=O)(=O)c3ccc(C)cc3)S(=O)(=O)c3ccc(C)cc3)c2)S(=O)(=O)c2ccc(C)cc2)cc1`: the survivor count by setting is: under setting [11], 10 of 10; under setting [12], 10 of 10.

Regarding `O=C1C(=O)c2ccccc2-c2ccccc21`, the T/C under setting [8] was 141 % of control. For the same compound, the survivor count reads like this: under setting [7], 10 of 10; under setting [9], 10 of 10; (dose: 100.0 mg/kg/injection, schedule: Q04DX003 (ip), vehicle: saline with Tween-80) 9 of 10; (dose: 200.0 mg/kg/injection, schedule: Q04DX003 (ip), vehicle: saline with Tween-80) 4 of 10.

Regarding `CC(C)C(NC(=O)c1ccccc1)C(=O)O` (stereo not drawn), the survivor count is given as 9 of 10 under setting [4]; 10 of 10 under setting [10]; 9 of 10 under setting [11]; 10 of 10 (dose: 400.0 mg/kg/injection, schedule: Q01DX009 (ip), vehicle: Klucel (hydroxypropylcellulose) (HPC)); 9 of 10 under setting [5]; 10 of 10 under setting [12].

Regarding `CCC(=O)OC1(c2ccccc2)CCN(C)C1C` (stereo not drawn), the survivor count is, setting by setting: under setting [6], 1 of 10; (dose: 400.0 mg/kg/injection, schedule: Q01DX009 (ip), vehicle: saline) 0 of 10.

With `COC1/C=C/O[C@@]2(C)Oc3c(C)c(O)c4c(O)c(cc(O)c4c3C2=O)NC(=O)/C(C)=C\C=C\[C@H](C)C(O)[C@@H](C)[C@@H](O)[C@@H](C)[C@H](OC(C)=O)[C@@H]1C` (stereo partly drawn), the survivor count under setting [5] is 6 of 6.

Regarding `NCCc1c[nH]c2ccccc12`, the survivor count (dose: 400.0 mg/kg/injection, schedule: Q04DX003 (ip), vehicle: saline) is recorded as 4 of 10.
